For assay [1], the target named is T1, ZIP10 (SLC39A10) zinc transporter, endogenous in cells (human) (UniProt Q9ULF5).
T1 sequence: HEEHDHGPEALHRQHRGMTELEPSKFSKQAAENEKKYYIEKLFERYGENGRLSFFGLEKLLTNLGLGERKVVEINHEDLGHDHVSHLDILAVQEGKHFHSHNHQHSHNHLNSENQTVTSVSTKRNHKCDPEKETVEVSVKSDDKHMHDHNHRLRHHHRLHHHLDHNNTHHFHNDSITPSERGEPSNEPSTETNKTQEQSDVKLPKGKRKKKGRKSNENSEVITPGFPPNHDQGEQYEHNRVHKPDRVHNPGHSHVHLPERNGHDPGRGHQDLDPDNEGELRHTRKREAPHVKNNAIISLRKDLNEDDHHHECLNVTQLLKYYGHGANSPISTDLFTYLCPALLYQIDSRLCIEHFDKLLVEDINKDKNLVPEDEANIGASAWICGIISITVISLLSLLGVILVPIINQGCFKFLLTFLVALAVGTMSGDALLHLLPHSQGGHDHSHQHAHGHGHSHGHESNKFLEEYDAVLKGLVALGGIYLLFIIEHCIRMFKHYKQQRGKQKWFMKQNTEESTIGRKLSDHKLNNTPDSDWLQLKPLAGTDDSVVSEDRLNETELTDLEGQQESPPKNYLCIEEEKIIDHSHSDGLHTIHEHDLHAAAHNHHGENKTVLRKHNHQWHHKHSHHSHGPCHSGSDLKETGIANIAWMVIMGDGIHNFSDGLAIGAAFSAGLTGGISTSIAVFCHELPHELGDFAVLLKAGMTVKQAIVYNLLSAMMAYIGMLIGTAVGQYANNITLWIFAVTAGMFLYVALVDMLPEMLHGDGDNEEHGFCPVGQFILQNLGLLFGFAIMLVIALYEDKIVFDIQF
Put plainly: proximity ligation assay, nocodazole-treated MCF-7 cells.

Assay [2] deals with T1, ZIP10 (SLC39A10) zinc transporter, endogenous in cells (human). In words: proximity ligation assay with ZIP6-Y and ZIP10 antibodies, nocodazole-treated MCF-7 cells.

No constants are given. Whether binding was seen depends on the method and setting. In cells and extracts the contact can be indirect. Some results given as binding are weak or reduced against the parent protein; the word gives no strength.

B1: recombinant ZIP6 wild-type with C-terminal V5 tag (other)
chain: FPQTTEKISPNWESGINVDLAISTRQYHLQQLFYRYGENNSLSVEGFRKLLQNIGIDKIKRIHIHHDHDHHSDHEHHSDHERHSDHEHHSEHEHHSDHDHHSHHNHAASGKNKRKALCPDHDSDSSGKDPRNSQGKGAHRPEHASGRRNVKDSVSASEVTSTVYNTVSEGTHFLETIETPRPGKLFPKDVSSSTPPSVTSKSRVSRLAGRKTNESVSEPRKGFMYSRNTNENPQECFNASKLLTSHGMGIQVPLNATEFNYLCPAIINQIDARSCLIHTSEKKAEIPPKTYSLQIAWVGGFIAISIISFLSLLGVILVPLMNRVFFKFLLSFLVALAVGTLSGDAFLHLLPHSHASHHHSHSHEEPAMEMKRGPLFSHLSSQNIEESAYFDSTWKGLTALGGLYFMFLVEHVLTLIKQFKDKKKKNQKKPENDDDVEIKKQLSKYESQLSTNEEKVDTDDRTEGYLRADSQEPSHFDSQQPAVLEEEEVMIAHAHPQEVYNEYVPRGCKNKCHSHFHDTLGQSDDLIHHHHDYHHILHHHHHQNHHPHSHSQRYSREELKDAGVATLAWMVIMGDGLHNFSDGLAIGAAFTEGLSSGLSTSVAVFCHELPHELGDFAVLLKAGMTVKQAVLYNALSAMLAYLGMATGIFIGHYAENVSMWIFALTAGLFMYVALVDMVPEMLHNDASDHGCSRWGYFFLQNAGMLLGFGIMLLISIFEHKIVFRINF
notes: Expressed by transfection and immunoprecipitated from cell lysate with V5 antibody; also called ZIP6 wild-type (WT); ZIP6/LIV-1/SLC39A6 in pcDNA3.1/V5-His-TOPO; not shown: C-terminal V5 tag from vector pcDNA3.1/V5-His-TOPO
In the case of B1, the binding entry in assay [1] and in assay [2] was “binds” each time.

The values are drawn from US20220227861A1 (UNIVERSITY COLLEGE CARDIFF CONSULTANTS, published 2022).
